# Measurements as given in patent US10017468B2 (Ogeda SA, priority 2009, dated 2018).
# At least one structure is not confirmed: it was looked up by name or label, or the drawing left a doubt. Some entries repeat one wording, which the source may state once for all of them.
# Test system: adipocytes from normal rat
# Experiment: Lipolysis assay in isolated adipocytes (isoprenaline-induced)
# Type: cell-based
# Settings: compound at 30 μM, FIG. 1
smiles,measurement,value
"Cc1ccccc1-c1ccc(C(=O)N2[C@@H](c3ccccc3Cl)CC[C@H]2C(=O)O)cc1 [Compound 2, (2S,5R)-5-(2-chlorophenyl)-1-(2′-methyl-[1,1′-biphenyl]-4-carbonyl)pyrrolidine-2-carboxylic acid]",inhibition of isoprenaline-induced lipolysis,inhibit isoprenaline-induced lipolysis
Cc1ccc(-c2ccc(C(=O)N3[C@@H](c4ccccc4Cl)CC[C@H]3C(=O)O)cc2)cc1 [Compound 5],inhibition of isoprenaline-induced lipolysis,inhibit isoprenaline-induced lipolysis
"COc1cccc(-c2ccc(C(=O)N3[C@@H](c4ccccc4Cl)CC[C@H]3C(=O)O)cc2)c1 [Compound 13, (2S,5R)-5-(2-chlorophenyl)-1-(3′-methoxy-[1,1′-biphenyl]-4-carbonyl)pyrrolidine-2-carboxylic acid]",inhibition of isoprenaline-induced lipolysis,inhibit isoprenaline-induced lipolysis
"O=C(O)[C@@H]1CC[C@H](c2ccccc2Cl)N1C(=O)c1ccc(-c2cccc(F)c2)cc1 [Compound 10, (2S,5R)-5-(2-chlorophenyl)-1-(3′-fluoro-[1,1′-biphenyl]-4-carbonyl)pyrrolidine-2-carboxylic acid]",inhibition of isoprenaline-induced lipolysis,inhibit isoprenaline-induced lipolysis
"O=C(O)[C@@H]1CC[C@H](c2ccccc2Cl)N1C(=O)c1ccc(-c2ccccc2)cc1 [Compound 8, (2S,5R)-1-([1,1′-biphenyl]-4-carbonyl)-5-(2-chlorophenyl)pyrrolidine-2-carboxylic acid]",inhibition of isoprenaline-induced lipolysis,inhibit isoprenaline-induced lipolysis
"O=C(O)[C@@H]1CC[C@H](c2ccccc2Cl)N1C(=O)c1ccc(-c2ccccc2F)cc1 [Compound 4, (2S,5R)-5-(2-chlorophenyl)-1-(2′-fluoro-[1,1′-biphenyl]-4-carbonyl)pyrrolidine-2-carboxylic acid]",inhibition of isoprenaline-induced lipolysis,inhibit isoprenaline-induced lipolysis
"Cc1cccc(-c2ccc(C(=O)N3[C@@H](c4ccccc4Cl)CC[C@H]3C(=O)O)cc2)c1 [Compound 11, (2S,5R)-5-(2-chlorophenyl)-1-(3′-methyl-[1,1′-biphenyl]-4-carbonyl)pyrrolidine-2-carboxylic acid]",inhibition of isoprenaline-induced lipolysis,inhibit isoprenaline-induced lipolysis
